From PubChem BioAssay record AID912 (NCATS, 2007).

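A cell-based FRET test of anthrax lethal toxin entry, tracked through the 460 nm emission signal; the cell line is not named here. Each compound was tested as a concentration series from about 0.0005 to 40 µM. The number is the fitted AC50 of the 460 nm signal alone; lower values mean a more potent effect. A falling signal goes with compounds filed as inhibitors or cytotoxic, a rising one with activators or fluorescent compounds (inferred from the filed classes).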

Values are in µM. Common to all entries: measured here: 460 nm channel. Part of the compounds only, not a random draw; the main read-out is not listed here. A potency from a partial, single-point or poor curve is only a rough figure. The first word of each remark tells which way the curve ran; it can be opposite to the aim of the assay.

{"structure": "O=C(O)c1ccc(S(=O)(=O)Nc2ccc(F)c(Cl)c2)cc1", "AC50 (µM)": "0.0631", "remark": "rising, full curve, poor fit"}
{"structure": "COc1cc(OC)c(C2Oc3nc(SC)nnc3-c3ccccc3N2C(C)=O)cc1OC", "stereo": "stereo not given", "AC50 (µM)": "3.162", "remark": "rising, single point"}
{"structure": "CCNc1ncc2nc(CCc3ccccc3)c(=O)n(Cc3cccc(OC)c3)c2n1", "AC50 (µM)": "2.512", "remark": "rising, full curve, poor fit"}
{"structure": "COC(=O)[C@@]1(Cc2ccc(F)cc2)[C@H]2c3cc(C(=O)N4CCCC4)n(Cc4c(CO)[nH]cc(C)c4=O)c3C[C@H]2CN1C(=O)c1ccccc1", "AC50 (µM)": "12.59", "remark": "rising, partial curve"}
{"structure": "COc1cccc(C(C(=O)NCc2ccco2)N(C(=O)Cn2nnc3ccccc32)C2CC2)c1OC", "stereo": "stereo not given", "AC50 (µM)": "1.995", "remark": "rising, full curve, poor fit"}
{"structure": "Clc1cccc2sc(N3CCCC3)nc12", "AC50 (µM)": "5.012", "remark": "rising, single point"}
{"structure": "CC(N=Cc1cccc(O)c1O)c1ccccc1", "stereo": "stereo not given", "AC50 (µM)": "25.12", "remark": "falling, single point"}
{"structure": "O=C(Nc1ccc(Cn2nnc3ccccc32)cc1)c1ccco1", "AC50 (µM)": "12.59", "remark": "falling, single point"}
{"structure": "COc1ccccc1CN1CCCC2(CCN(C(=O)c3ccco3)CC2)C1", "AC50 (µM)": "31.62", "remark": "falling, single point"}
{"structure": "CN1CCN(CCNC(=O)c2cc3c(=O)n(C)c4ccccc4c3n2C)CC1", "AC50 (µM)": "19.95", "remark": "falling, single point"}
{"structure": "CCN(CC)CCNC(=O)c1cn(C)c2ccc(S(=O)(=O)N(C)C3CCCCC3)cc2c1=O", "AC50 (µM)": "10", "remark": "falling, partial curve"}
{"structure": "Cc1cc(=O)n2c(C)n[nH]c2n1", "AC50 (µM)": "0.03162", "remark": "falling, full curve"}
{"structure": "Cc1ccc(NS(=O)(=O)c2cc(C(=O)O)ccc2Cl)c(C)c1", "AC50 (µM)": "0.003162", "remark": "falling, full curve, poor fit"}
{"structure": "c1ccc2c(c1)NC1(CCCCC1)n1c-2nc2ccccc21", "AC50 (µM)": "10", "remark": "rising, partial curve"}
{"structure": "Cn1cccc1C(=O)N1CCC2(CC1)CN(C(c1ccccc1)c1ccccc1)C2", "AC50 (µM)": "15.85", "remark": "rising, single point"}
{"structure": "CN(C)Cc1ccccc1-c1cncnc1NC1CC1", "AC50 (µM)": "3.981", "remark": "falling, partial curve"}
{"structure": "Cc1ccc2cccnc2c1", "AC50 (µM)": "31.62", "remark": "falling, single point"}
{"structure": "CC1(COc2ccc(C[C@H]3SC(=O)NC3=O)cc2)CCCCC1", "AC50 (µM)": "12.59", "remark": "falling, single point"}
{"structure": "COC(=O)c1ccc2c(=O)n3c(nc2c1)SCC(c1ccccc1)=N3", "AC50 (µM)": "3.981", "remark": "falling, full curve"}
{"structure": "Cn1c(=O)c2c(nc(Br)n2CCCc2ccccc2)n(C)c1=O", "AC50 (µM)": "10", "remark": "rising, single point"}
{"structure": "COc1ccc(-n2c(=O)c(CCc3ccccc3)nc3cnc(N4CCN(C)CC4)nc32)cc1", "AC50 (µM)": "12.59", "remark": "rising, partial curve"}
{"structure": "ClC(Cl)=C(c1ccc(Cl)cc1)c1ccc(Cl)cc1", "AC50 (µM)": "7.943", "remark": "falling, full curve"}
{"structure": "C=C1C[C@@]23C[C@]1(O)CC[C@@H]2[C@]12C=C[C@@H](O)[C@@](C)(C(=O)O1)[C@@H]2[C@@H]3C(=O)O", "AC50 (µM)": "12.59", "remark": "falling, partial curve"}
{"structure": "CCOC(=O)c1c(-c2cccs2)csc1NC(=O)CN1CC(C)OC(C)C1", "stereo": "stereo not given", "AC50 (µM)": "7.943", "remark": "falling, partial curve"}
{"structure": "COc1ccccc1N=c1oc2cc(O)ccc2cc1C(=O)NCC1CCCO1", "stereo": "stereo not given", "AC50 (µM)": "10", "remark": "rising, partial curve"}
{"structure": "COc1ccc(-n2c(=O)c(-c3cccs3)nc3cnc(N4CCN(C)CC4)nc32)cc1", "AC50 (µM)": "10", "remark": "rising, partial curve"}
{"structure": "Oc1cc(CN2COc3ccccc32)c(O)cc1CNC1CCCCC1", "AC50 (µM)": "3.162", "remark": "falling, single point"}
{"structure": "COn1c(SCC(N)=O)nc2ccccc2c1=O", "AC50 (µM)": "31.62", "remark": "rising, single point"}
{"structure": "CC(=O)Nc1ccc(S(=O)(=O)N2CCN(c3cccc(C)c3C)CC2)cc1", "AC50 (µM)": "10", "remark": "falling, partial curve, poor fit"}
{"structure": "Cc1ccc(S(=O)(=O)c2c(C)nn(C(C)(C)C)c2OC(=O)c2ccco2)cc1", "AC50 (µM)": "31.62", "remark": "falling, single point"}
{"structure": "CCOC1(OCC)N=C(N)C2(C#N)C(c3ccc(NC(C)=O)cc3)C12C#N", "stereo": "stereo not given", "AC50 (µM)": "1.995", "remark": "falling, single point"}
{"structure": "O=C(c1ccco1)N1CCC2(CCCN(c3cccc(-c4ccccc4)c3)C2)CC1", "AC50 (µM)": "15.85", "remark": "falling, single point"}

For reference, 2 entries once more:

With Cn1cccc1C(=O)N1CCC2(CC1)CN(C(c1ccccc1)c1ccccc1)C2 the assay gave AC50 15.85 µM (rising, single point).
With Cc1ccc(S(=O)(=O)c2c(C)nn(C(C)(C)C)c2OC(=O)c2ccco2)cc1 the assay gave AC50 31.62 µM (falling, single point).